The list shows only some results of the screen, not a fair sample: it gathers tests that were run many times, whatever their T/C, doses with no T/C, and many T/C values between a quarter and a half above the control. Other doses and runs of a compound stand elsewhere. T/C gives the treated animals as a percentage of the vehicle group. Some doses have a count of surviving animals in place of a T/C: the source holds a T/C of zero for them, seemingly a mark for toxic or unscored doses. Some doses without a T/C left all or most animals alive at the check, yet need not have been tolerated: the source hardly ever lists a survival T/C far under the control, and the zero likely stands for such cases as well. Survivors were counted at the toxicity check, usually on the fifth day, unless a day is given; later deaths do not show. Schedules are NCI's codes, read here as Q, the interval in days (D) or hours (H), X, the number of doses. Some doses were run more than once; the values are given in rising order. Where survival is the endpoint, the PubChem record calls one and a half times the control and up active, and a quarter to a half above the control has no call in these data; cut-offs in other NCI protocols can differ. Signs of the kind (2×) count equal records among those shown. Some T/C values are followed by the survivors on the day toxicity was checked, most often the fifth; without a count, all were alive then.

This is an account of results in PubChem BioAssay AID328 (DTP/NCI, 2004).

The test system of the assay is BDF1 mice, P388 leukemia ip, median survival T/C. In words: NCI In Vivo Anticancer Drug Screen. Data for tumor model P388 Leukemia (intraperitoneal) in B6D2F1 (BDF1) mice. The following applies: T/C endpoint: median survival time, higher T/C = longer survival. A digest of the protocol: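 Read-out is survival of treated animals expressed relative to the vehicle group, as a T/C ratio.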

Where [1] appears, read: dose: 100.0 mg/kg/injection, schedule: Q01DX009 (ip), vehicle: saline with Tween-80.
Where [2] appears, read: dose: 200.0 mg/kg/injection, schedule: Q01DX009 (ip), vehicle: saline with Tween-80.
The mark [3] stands for this setting: dose: 400.0 mg/kg/injection, schedule: Q01DX009 (ip), vehicle: saline with Tween-80.
Where [4] appears, read: dose: 100.0 mg/kg/injection, schedule: Q04DX003 (ip), vehicle: saline.
[5] abbreviates: dose: 50.0 mg/kg/injection, schedule: Q04DX003 (ip), vehicle: saline.
Where [6] appears, read: dose: 200.0 mg/kg/injection, schedule: Q01DX009 (ip), vehicle: saline.
Where [7] appears, read: dose: 50.0 mg/kg/injection, schedule: Q01DX009 (ip), vehicle: water.
Where [8] appears, read: dose: 400.0 mg/kg/injection, schedule: Q01DX009 (ip), vehicle: saline.

For `CCNc1ccc(/C=C2\C=Cc3ccccc32)cc1`, the survivor count (dose: 6.25 mg/kg/injection, schedule: Q01DX009 (ip), vehicle: Klucel (hydroxypropylcellulose) (HPC)) is 6 of 6.

As to `CCNNC(=O)[C@@H]1[C@H](c2cc(OC)c(OC)c(OC)c2)c2cc3c(cc2[C@H](O)[C@H]1CO)OCO3`, the survivor count is on record as 4 of 6 under setting [1]; 2 of 6 under setting [2]; 2 of 6 under setting [3]; 4 of 6 (dose: 400.0 mg/kg/injection, schedule: Q04DX003 (ip), vehicle: saline with Tween-80).

Take `O=C(CO)c1ccc([N+](=O)[O-])cc1`: the T/C (dose: 6.25 mg/kg/injection, schedule: Q01DX009 (ip), vehicle: saline with Tween-80) was 126 % of control; the T/C (dose: 12.5 mg/kg/injection, schedule: Q01DX009 (ip), vehicle: saline with Tween-80) is 126 and 130 % of control; the T/C (dose: 25.0 mg/kg/injection, schedule: Q01DX009 (ip), vehicle: saline with Tween-80) was 126 % of control (2×); the T/C (dose: 50.0 mg/kg/injection, schedule: Q01DX009 (ip), vehicle: saline with Tween-80) is 128 and 133 % of control [4 of 6 alive]. The survivor count is 0 of 6 and 6 of 6 under setting [1]; 0 of 6 under setting [2].

With `O=P(N1CC=CCC1)(N1CC1)N1CC1`, the survivor count runs as follows: (dose: 50.0 mg/kg/injection, schedule: Q01DX009 (ip), vehicle: saline) 5 of 6; under setting [4], 4 of 6; (dose: 200.0 mg/kg/injection, schedule: Q04DX003 (ip), vehicle: saline) 3 of 6; (dose: 400.0 mg/kg/injection, schedule: Q04DX003 (ip), vehicle: saline) 0 of 6.

Turning to `CN1CCN(C(=O)N2c3ccccc3Sc3ccccc32)CC1`, the survivor count was 6 of 6 (dose: 25.0 mg/kg/injection, schedule: Q04DX003 (ip), vehicle: saline); 6 of 6 under setting [5]; 6 of 6 under setting [4].

Regarding `CC(=O)Nc1ccc(S(=O)(=O)SC(F)(F)F)cc1`, the survivor count is, setting by setting: (dose: 25.0 mg/kg/injection, schedule: Q01DX010 (ip), vehicle: saline) 2 of 6; (dose: 50.0 mg/kg/injection, schedule: Q01DX010 (ip), vehicle: saline) 1 of 6; (dose: 100.0 mg/kg/injection, schedule: Q01DX010 (ip), vehicle: saline) 1 of 6; (dose: 200.0 mg/kg/injection, schedule: Q01DX010 (ip), vehicle: saline) 0 of 6.

As for `CCOC(=O)CN(C)C#N`, the T/C under setting [6] is 125 % of control.

For the compound `CC1([CH2][Hg][I])COCC([CH2][Hg][I])O1` (stereo not given), the survivor count is, setting by setting: (dose: 23.0 mg/kg/injection, schedule: Q01DX009 (ip), vehicle: saline) 0 of 6; (dose: 40.0 mg/kg/injection, schedule: Q04DX003 (ip), vehicle: saline) 3 of 6.

As for `CCCCCCCCCCCCCCCC[N+](C)(C)c1nc(Cl)nc(Cl)n1`, the survivor count (dose: 60.0 mg/kg/injection, schedule: Q01DX009 (ip), vehicle: saline) is given as 6 of 6.

Take `Cc1cc(C)nc(NS(=O)(=O)c2ccc(NC(=O)C(Cl)(Cl)Cl)cc2)n1`: the survivor count (dose: 50.0 mg/kg/injection, schedule: Q01DX005 (ip), vehicle: saline with Tween-80) was 5 of 5.

Regarding `COc1ccc(C(=O)C(C)C=O)c(OCc2ccccc2)c1OC` (stereo not given), the survivor count under setting [3] is given as 6 of 6.

`O=C1CC(c2ccc(Cl)cc2)NC(c2ccc(Cl)cc2)C1` (stereo not given): the T/C runs as follows: under setting [2], 131 % of control [5 of 6 alive]; under setting [3], 128 % of control [5 of 6 alive]. Where the note is “dose: 300.0 mg/kg/injection, schedule: Q01DX009 (ip), vehicle: saline with Tween-80”, the survivor count is given as 3 of 6.

For `CCSCCSCC`, the survivor count under setting [3] is recorded as 6 of 6.

Regarding `COc1cccc2c1C(=O)c1c(O)c3c(c(O)c1C2=O)C[C@@](O)(C(=O)COC(=O)Cc1ccccc1)C[C@@H]3OC1CC(N)C(O)C(C)O1` (stereo not given in full), the T/C (dose: 3.0 mg/kg/injection, schedule: Q01DX009 (ip), vehicle: saline) is 145 % of control.

As to `FC(F)(F)c1ccc2c(c1)N(CCCN(CCCl)CCCl)c1ccccc1S2`, where the note is “dose: 12.5 mg/kg/injection, schedule: Q04DX003 (ip), vehicle: saline with Tween-80”, the T/C was 128 % of control [5 of 6 alive].

As for `O=c1[nH]c2nccnc2[nH]1`, the survivor count is, setting by setting: (dose: 12.5 mg/kg/injection, schedule: Q01DX009 (ip), vehicle: water) 6 of 6; (dose: 25.0 mg/kg/injection, schedule: Q01DX009 (ip), vehicle: water) 6 of 6; under setting [7], 6 of 6; (dose: 200.0 mg/kg/injection, schedule: Q01DX009 (ip), vehicle: water) 6 of 6; (dose: 400.0 mg/kg/injection, schedule: Q01DX009 (ip), vehicle: water) 6 of 6. Also, the T/C under setting [7] was 129 % of control.

In the case of `O=C1C2ON=C(c3ccccc3)C2C(=O)N1OS(=O)(=O)c1ccccc1` (stereo not given), the survivor count under setting [3] is 5 of 6.

For `C=CCOP(OCC=C)OCC=C`, under setting [5], the survivor count is 6 of 6.

On to `CC1=C2CC(C)(C)/C=C\C(=O)/C(C)=C\C3=C[C@H](C)C[C@]3(O2)C1=O`, for which the T/C reads like this: (dose: 12.0 mg/kg/injection, schedule: Q01DX010 (ip), vehicle: saline) 145 % of control; (dose: 18.0 mg/kg/injection, schedule: Q01DX010 (ip), vehicle: saline) 140 % of control; (dose: 24.0 mg/kg/injection, schedule: Q01DX010 (ip), vehicle: saline) 138 % of control; (dose: 27.0 mg/kg/injection, schedule: Q01DX010 (ip), vehicle: saline) 145 % of control. Besides, the survivor count runs as follows: (dose: 16.0 mg/kg/injection, schedule: Q01DX010 (ip), vehicle: carboxymethylcellulose (CMC)) 3 of 6; (dose: 36.0 mg/kg/injection, schedule: Q01DX010 (ip), vehicle: saline) 6 of 6; (dose: 54.0 mg/kg/injection, schedule: Q01DX010 (ip), vehicle: saline) 2 of 6.

For the compound `C=C1C(=O)OC2/C=C(\C)C(=O)/C=C\C(C)(O)CC(OC(=O)C(C)C)C12` (stereo not given), the survivor count is, setting by setting: (dose: 50.0 mg/kg/injection, schedule: Q01DX009 (ip), vehicle: saline + alcohol) 1 of 4; (dose: 100.0 mg/kg/injection, schedule: Q01DX009 (ip), vehicle: saline + alcohol) 0 of 4.

Take `CC(=O)Nc1ccc2c3c(ccc([N+](=O)[O-])c13)CC2`: under setting [8], the survivor count is given as 2 of 6.

`OCC[P+](c1ccccc1)(c1ccccc1)c1ccccc1`: the survivor count is listed as 0 of 6 (dose: 100.0 mg/kg/injection, schedule: Q01DX001 (ip), vehicle: saline with Tween-80); 1 of 6 (dose: 100.0 mg/kg/injection, schedule: Q01DX001 (ip), vehicle: saline); 0 of 6 (dose: 200.0 mg/kg/injection, schedule: Q01DX001 (ip), vehicle: saline with Tween-80); 0 of 6 (dose: 400.0 mg/kg/injection, schedule: Q01DX001 (ip), vehicle: saline with Tween-80).

With `CN(C)C1=C(N2CC2)C(=O)C(N(C)C)=C(N2CC2)C1=O`, under “dose: 0.12 mg/kg/injection, schedule: Q01DX009 (ip), vehicle: saline”, the T/C is 131 % of control.

Turning to `CC1CN1P(=O)(Oc1ccccc1)N1CC1C` (stereo not given), the survivor count (dose: 150.0 mg/kg/injection, schedule: Q01DX009 (ip), vehicle: saline) was 6 of 6; the survivor count under setting [6] is given as 6 of 6; the survivor count under setting [8] is 4 of 6.
